The text below walks through data of article PMC8989981, “Negative feedback of SNRK to circ-SNRK regulates cardiac function post-myocardial infarction” (Cell Death and Differentiation, 2021).

Results are given in words; binding and its absence hold for the method and conditions named. In cells and extracts the contact can be indirect. Some entries that bind do so weakly or less than the wild type.

The target in the assay is T1, SNRK (sucrose nonfermenting 1-related kinase) (rat (endogenous in NRCMs)) (UniProt Q63553).
T1 sequence: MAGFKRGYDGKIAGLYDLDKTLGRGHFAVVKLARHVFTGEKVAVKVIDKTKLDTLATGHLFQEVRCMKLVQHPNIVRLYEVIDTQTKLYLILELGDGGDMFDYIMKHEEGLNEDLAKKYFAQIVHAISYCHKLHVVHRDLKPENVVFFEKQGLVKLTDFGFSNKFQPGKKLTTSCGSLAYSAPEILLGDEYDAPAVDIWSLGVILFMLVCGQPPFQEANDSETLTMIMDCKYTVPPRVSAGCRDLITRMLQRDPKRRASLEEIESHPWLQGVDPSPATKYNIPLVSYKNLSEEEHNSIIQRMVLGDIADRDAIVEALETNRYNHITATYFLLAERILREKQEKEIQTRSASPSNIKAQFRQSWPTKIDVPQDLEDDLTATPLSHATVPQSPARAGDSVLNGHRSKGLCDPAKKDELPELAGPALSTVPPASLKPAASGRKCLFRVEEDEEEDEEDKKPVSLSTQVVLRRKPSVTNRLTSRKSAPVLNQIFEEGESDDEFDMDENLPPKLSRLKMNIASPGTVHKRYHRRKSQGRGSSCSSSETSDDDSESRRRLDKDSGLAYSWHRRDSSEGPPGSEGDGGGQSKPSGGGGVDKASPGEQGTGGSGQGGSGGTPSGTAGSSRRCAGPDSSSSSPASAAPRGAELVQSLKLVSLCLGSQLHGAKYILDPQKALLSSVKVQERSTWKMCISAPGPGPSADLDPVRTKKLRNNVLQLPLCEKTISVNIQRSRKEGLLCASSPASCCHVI
Nature of the assay: co-IP; proteins of NRCMs (neonatal rat cardiomyocytes); precipitation of SNRK, NOVA1 or activated Caspase 3 and immunoblot of the partner; no co-IP method is described.

B1: NOVA1 (NOVA alternative splicing regulator 1) (natural protein, rat (endogenous in NRCMs), UniProt Q80WA4 1-474, looked up)
chain: MAAAPIQQNGTHTGVPIDLDPPDSRKRPLEAPPEAGSTKRTNTGEDGQYFLKVLIPSYAAGSIIGKGGQTIVQLQKETGATIKLSKSKDFYPGTTERVCLIQGTIEALNAVHGFIAEKIREMPQNVAKTEPVSILQPQTTVNPDRIKQVKIIVPNSTAGLIIGKGGATVKAIMEQSGAWVQLSQKPDGINLQERVVTVSGEPEQNRKAVELIIQKIQEDPQSGSCLNISYANVTGPVANSNPTGFPYANTAEVLPTAAAAAGLLGHANLAGVAAFPAVLSGFTGNDLVAITSALNTLASYGYNLNTLGLGLSQAAATGALAAAAASANPAAAAANLLATYASEASASGSTAGGTAGTFALGSLAAATAATNGYFGAASPLAASAILGTEKSTDGSKDVVEIAVPENLVGAILGKGGKTLVEYQELTGARIQISKKGEFVPGTRNRKVTITGTPAATQAAQYLITQRITYEQGVR
notes: NOVA1 (NOVA alternative splicing regulator 1), rat, as present in neonatal rat cardiomyocytes; also called protein NOVA1; source: endogenous, NRCMs (neonatal rat cardiomyocytes), in lysate / total protein
On to B1, for which the binding entry is “binds”.
